Measurements: PubChem BioAssay AID330 (DTP/NCI, 2004)
The list does not hold the whole screen: it gathers tests that were run many times, whatever their T/C, doses with no T/C, and many T/C values between a quarter and a half above the control. Further doses and runs are listed elsewhere. T/C gives the treated animals as a percentage of the vehicle group. Some doses have a count of surviving animals in place of a T/C: the source holds a T/C of zero for them, seemingly a mark for toxic or unscored doses. Some survivor counts are full or nearly so, which does not show that the dose was tolerated: the source hardly ever lists a survival T/C far under the control, and the zero likely stands for such cases as well. Survivors were counted at the toxicity check, usually on the fifth day, unless a day is given; later deaths do not show. Schedules are NCI's codes, read here as Q, the interval in days (D) or hours (H), X, the number of doses. Some entries were tested several times; the results are listed from low to high. Some molecules as drawn cover several salts, stereoisomers or complexes of the source; a dose is that of the sample tested. For survival time, the PubChem record calls one and a half times the control and up active, and a quarter to a half above the control has no call in these data; cut-offs in other NCI protocols can differ. Some T/C values carry the count of animals alive at the toxicity check (mostly the fifth day); without a count, all were alive then.

System: P388 leukemia ip, CD2F1 mice, survival T/C
Assay: NCI In Vivo Anticancer Drug Screen. Data for tumor model P388 Leukemia (intraperitoneal) in CD2F1 (CDF1) mice
Details: T/C endpoint: median survival time, higher T/C = longer survival
[1] = dose: 240.0 mg/kg/injection, schedule: Q01DX005 (ip), vehicle: saline with Tween-80
[2] = dose: 100.0 mg/kg/injection, schedule: Q04DX003 (ip), vehicle: saline with Tween-80
[3] = dose: 200.0 mg/kg/injection, schedule: Q04DX003 (ip), vehicle: saline with Tween-80
[4] = dose: 400.0 mg/kg/injection, schedule: Q04DX003 (ip), vehicle: saline with Tween-80
[5] = dose: 12.5 mg/kg/injection, schedule: Q01DX009 (ip), vehicle: saline with Tween-80
[6] = dose: 25.0 mg/kg/injection, schedule: Q01DX009 (ip), vehicle: saline with Tween-80
[7] = dose: 200.0 mg/kg/injection, schedule: Q01DX009 (ip), vehicle: saline with Tween-80
[8] = dose: 50.0 mg/kg/injection, schedule: Q01DX009 (ip), vehicle: saline
[9] = dose: 25.0 mg/kg/injection, schedule: Q01DX005 (ip), vehicle: Klucel (hydroxypropylcellulose) (HPC)
[10] = dose: 50.0 mg/kg/injection, schedule: Q01DX005 (ip), vehicle: Klucel (hydroxypropylcellulose) (HPC)
[11] = dose: 100.0 mg/kg/injection, schedule: Q01DX005 (ip), vehicle: Klucel (hydroxypropylcellulose) (HPC)
[12] = dose: 200.0 mg/kg/injection, schedule: Q01DX001 (ip), vehicle: Klucel (hydroxypropylcellulose) (HPC)
[13] = dose: 200.0 mg/kg/injection, schedule: Q01DX005 (ip), vehicle: Klucel (hydroxypropylcellulose) (HPC)
[14] = dose: 60.0 mg/kg/injection, schedule: Q01DX005 (ip), vehicle: Klucel (hydroxypropylcellulose) (HPC)
[15] = dose: 120.0 mg/kg/injection, schedule: Q01DX005 (ip), vehicle: Klucel (hydroxypropylcellulose) (HPC)
[16] = dose: 400.0 mg/kg/injection, schedule: Q01DX001 (ip), vehicle: Klucel (hydroxypropylcellulose) (HPC)

Structure (SMILES): COc1cc2c(cc1OC)C(C)N1CCc3cc(OC)c(OC)cc3C1C2 (centres undefined)
- survivor count (dose: 6.25 mg/kg/injection, schedule: Q01DX009 (ip), vehicle: Klucel (hydroxypropylcellulose) (HPC)): 1 of 6 and 3 of 6
- survivor count (dose: 12.5 mg/kg/injection, schedule: Q01DX009 (ip), vehicle: Klucel (hydroxypropylcellulose) (HPC)): 0 of 6
- survivor count (dose: 25.0 mg/kg/injection, schedule: Q01DX009 (ip), vehicle: Klucel (hydroxypropylcellulose) (HPC)): 0 of 6
- survivor count (dose: 50.0 mg/kg/injection, schedule: Q01DX009 (ip), vehicle: Klucel (hydroxypropylcellulose) (HPC)): 0 of 6
- survivor count (dose: 100.0 mg/kg/injection, schedule: Q01DX009 (ip), vehicle: Klucel (hydroxypropylcellulose) (HPC)): 0 of 6
- survivor count (dose: 200.0 mg/kg/injection, schedule: Q01DX009 (ip), vehicle: Klucel (hydroxypropylcellulose) (HPC)): 0 of 6

Structure (SMILES): C=CCNC1=C2C[C@@H](C)C[C@H](OC)[C@H](O)[C@@H](C)/C=C(\C)[C@H](OC(N)=O)[C@@H](OC)/C=C\C=C(/C)C(=O)NC(=CC1=O)C2=O
- survivor count (dose: 25.0 mg/kg/injection, schedule: Q01DX009 (ip), vehicle: distilled water + Tween-80): 5 of 6

Structure (SMILES): CN(C)CC(C)(CN(C)C)C(=O)/C=C/c1c(Cl)cccc1Cl
- survivor count [1]: 1 of 6

Structure (SMILES): N#CC(Br)(Br)C(=O)c1nc(N)nc(N)n1
- survivor count (dose: 50.0 mg/kg/injection, schedule: Q01DX005 (ip), vehicle: saline with Tween-80): 0 of 6
- survivor count (dose: 100.0 mg/kg/injection, schedule: Q01DX005 (ip), vehicle: saline with Tween-80): 0 of 6
- survivor count (dose: 200.0 mg/kg/injection, schedule: Q01DX005 (ip), vehicle: saline with Tween-80): 0 of 6

Structure (SMILES): CCN(CC)CCN1C(=O)C2C3C=CC(C2C1=O)C1C2C(=O)N(CCN(CC)CC)C(=O)C2C31 (centres undefined)
- survivor count (dose: 200.0 mg/kg/injection, schedule: Q01DX009 (ip), vehicle: water): 1 of 6 and 2 of 5

Structure (SMILES): CSC(C)(C(=N)C#N)N(C)C (centres undefined)
- survivor count [2]: 0 of 6
- survivor count [3]: 0 of 6
- survivor count [4]: 0 of 6

Structure (SMILES): O=C(NC1CCOC1=O)OCc1ccccc1 (centres undefined)
- survivor count (dose: 12.5 mg/kg/injection, schedule: Q01DX009 (ip), vehicle: distilled water + Tween-80): 6 of 6

Structure (SMILES): Cc1ccc2nc(-c3ccc(CSC(=N)N)cc3)oc(=O)c2c1
- survivor count (dose: 6.25 mg/kg/injection, schedule: Q01DX009 (ip), vehicle: saline with Tween-80): 6 of 6
- survivor count [5]: 6 of 6
- survivor count [6]: 6 of 6
- survivor count [7]: 0 of 6

Structure (SMILES): CC[N](CC)[Ge]([CH2]C)[CH2]C.CC[N](CC)[Ge]([CH2]C)[CH2]C
- T/C (dose: 25.0 mg/kg/injection, schedule: Q01DX009 (ip), vehicle: saline): 125 % of control
- T/C [8]: 138 % of control
- survivor count [8]: 6 of 6
- survivor count (dose: 100.0 mg/kg/injection, schedule: Q01DX009 (ip), vehicle: saline): 5 of 6
- survivor count (dose: 200.0 mg/kg/injection, schedule: Q01DX009 (ip), vehicle: saline): 0 of 6
- survivor count (dose: 200.0 mg/kg/injection, schedule: Q04DX003 (ip), vehicle: saline): 0 of 6
- survivor count (dose: 400.0 mg/kg/injection, schedule: Q04DX003 (ip), vehicle: saline): 0 of 6

Structure (SMILES): C=C1C(=O)OC2/C=C(\C)CC/C=C(/CO)C(OC(=O)C(C)(C)O)C(OC(=O)C(C)C)C12 (centres undefined)
- survivor count (dose: 10.0 mg/kg/injection, schedule: Q01DX009 (ip), vehicle: other): 3 of 6
- T/C (dose: 20.0 mg/kg/injection, schedule: Q01DX009 (ip), vehicle: other): 136 % of control [5 of 6 alive]

Structure (SMILES): CC(C)(c1ccc(OCC2CO2)cc1)c1ccc(OCC2CO2)cc1 (centres undefined)
- T/C (dose: 100.0 mg/kg/injection, schedule: Q01DX009 (ip), vehicle: saline with Tween-80): 131 % of control
- T/C [7]: 131 % of control

Structure (SMILES): O=C(NCCCl)Oc1cc(Cl)c(Cl)cc1Cl
- T/C [9]: 127 and 128 % of control
- T/C [10]: 116, 120 [5 of 6 alive], 126, 135 % of control
- T/C [11]: 126 % of control [5 of 6 alive]
- survivor count [11]: 4 of 6
- survivor count [12]: 3 of 6
- survivor count [13]: 0 of 6

Structure (SMILES): BrC1=CC(Br)=C2N=C(N3CCCC3)N=C3N=C(C(Br)(Br)Br)N=C1N32
- survivor count [14]: 6 of 6
- survivor count [15]: 6 of 6

Structure (SMILES): C=C1C(=O)OC2/C=C(\C)CC/C=C(\C)CC(OC(=O)/C(=C/C)CO)C12 (centres undefined)
- survivor count [12]: 0 of 6
- survivor count [16]: 0 of 6

Structure (SMILES): Nc1nnc(SCCCCCCCCCCCCSc2nnc(N)s2)s1
- survivor count [11]: 6 of 6

Structure (SMILES): COC(=O)C1=C(C)NC(=O)NC1c1ccc(N(CCCl)CCCl)c(OC)c1 (centres undefined)
- survivor count [6]: 1 of 6

Structure (SMILES): CC(=O)Nc1cc(NC(C)=O)cc(N(CCCl)CCCl)c1
- T/C (dose: 6.25 mg/kg/injection, schedule: Q01DX009 (ip), vehicle: water): 128 and 129 % of control
- T/C (dose: 11.0 mg/kg/injection, schedule: Q01DX009 (ip), vehicle: water): 141 % of control
- T/C (dose: 12.5 mg/kg/injection, schedule: Q01DX009 (ip), vehicle: water): 142 % of control
- survivor count (dose: 100.0 mg/kg/injection, schedule: Q01DX009 (ip), vehicle: water): 6 of 6

Structure (SMILES): CCC12C=CCN3CCC4(c5cc(C6c7[nH]c8ccccc8c7CCN7CCCCC67)c(OC)cc5N(C)C4C(O)(C(=O)OC)C1OC(C)=O)C32 (centres undefined)
- T/C (dose: 0.5 mg/kg/injection, schedule: Q01DX009 (ip), vehicle: Klucel (hydroxypropylcellulose) (HPC)): 138 % of control
- T/C (dose: 2.0 mg/kg/injection, schedule: Q01DX009 (ip), vehicle: Klucel (hydroxypropylcellulose) (HPC)): 144 % of control [4 of 6 alive]

Structure (SMILES): Cc1noc(NS(=O)(=O)c2ccc(N=Nc3cc(N=Nc4ccc(S(=O)(=O)Nc5onc(C)c5C)cc4)c4c(NC(=O)C(Cl)Cl)cccc4c3OC(=O)C(Cl)Cl)cc2)c1C (tested in a mixture with another compound)
- survivor count [7]: 2 of 6 and 3 of 6

Structure (SMILES): O=C1c2ccccc2C(=O)c2c1nc1sccn21
- survivor count [9]: 5 of 5
- survivor count [10]: 5 of 5
- survivor count [11]: 2 of 5
- survivor count [13]: 0 of 5

Structure (SMILES): CC(=O)c1coc2c(c(C)nn2-c2ccccc2)c1=O
- survivor count [14]: 4 of 6
- survivor count [15]: 0 of 6
- survivor count (dose: 240.0 mg/kg/injection, schedule: Q01DX005 (ip), vehicle: Klucel (hydroxypropylcellulose) (HPC)): 0 of 6

Structure (SMILES): CC(=O)C1SCC[S+]1C (centres undefined)
- survivor count (dose: 120.0 mg/kg/injection, schedule: Q01DX005 (ip), vehicle: saline): 0 of 6
- survivor count (dose: 240.0 mg/kg/injection, schedule: Q01DX005 (ip), vehicle: saline): 0 of 6

Structure (SMILES): COc1cccc(-c2nc(SC)nc(Cl)c2C#N)c1
- survivor count [1]: 1 of 6

Structure (SMILES): CC(=O)OCc1c(Cl)nc2sccn12
- survivor count [16]: 0 of 6

Structure (SMILES): O=c1oc2c(O)c(O)cc3c(=O)oc4c(O)c(O)cc1c4c23
- T/C (dose: 50.0 mg/kg/injection, schedule: Q01DX009 (ip), vehicle: other): 140 % of control
- T/C (dose: 100.0 mg/kg/injection, schedule: Q01DX009 (ip), vehicle: other): 141 % of control

Structure (SMILES): CS(=O)(=O)OCCN(CCOS(C)(=O)=O)c1ccc(C(=O)O)cc1
- T/C [5]: 145 % of control
- T/C [2]: 140 % of control [5 of 6 alive]
- survivor count [7]: 5 of 6
- T/C [3]: 140 and 140 % of control [4 of 6 alive]
- survivor count (dose: 300.0 mg/kg/injection, schedule: Q04DX003 (ip), vehicle: saline with Tween-80): 5 of 6
- survivor count [4]: 5 of 6
